Measured values reported in patent US20140309170A1.
These are yes or no findings as the source states them, for the method shown. Some results given as binding are weak or reduced against the parent protein; the word gives no strength.

Protein sequences, listed by entry. Tags and fused reporters are not part of them. Lines headed by an entry give the natural chain unless they say otherwise; changes in a name come on top.
UniProt P07288: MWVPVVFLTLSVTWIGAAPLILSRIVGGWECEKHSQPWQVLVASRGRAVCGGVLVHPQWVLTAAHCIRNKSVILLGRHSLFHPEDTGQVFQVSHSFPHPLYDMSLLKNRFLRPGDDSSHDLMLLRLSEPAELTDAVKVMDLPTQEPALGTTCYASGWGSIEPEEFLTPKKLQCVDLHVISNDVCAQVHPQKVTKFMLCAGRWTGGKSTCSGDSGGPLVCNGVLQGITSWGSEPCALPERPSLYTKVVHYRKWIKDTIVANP

Target: T1, alpha1 anti-chymotrypsin (ACT) (UniProt P01011)
T1 sequence (looked up): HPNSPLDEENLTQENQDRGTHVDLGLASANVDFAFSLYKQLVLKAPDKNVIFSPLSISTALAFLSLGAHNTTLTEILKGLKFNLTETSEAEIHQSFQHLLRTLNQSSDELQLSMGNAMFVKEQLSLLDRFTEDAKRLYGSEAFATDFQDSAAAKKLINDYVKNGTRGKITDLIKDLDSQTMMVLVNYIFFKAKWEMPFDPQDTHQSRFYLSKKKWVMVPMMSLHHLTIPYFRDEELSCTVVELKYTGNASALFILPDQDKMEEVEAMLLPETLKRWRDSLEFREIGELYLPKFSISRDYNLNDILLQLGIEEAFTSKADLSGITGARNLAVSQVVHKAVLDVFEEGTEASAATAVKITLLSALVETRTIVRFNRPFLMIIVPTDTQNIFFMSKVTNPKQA
Assay: PSA-ACT complex used in HUVEC Matrigel tube formation assay; complex formation itself not assayed

binding: binds
Substance: f-PSA (free PSA purified from human seminal plasma) (from UniProt P07288 25-261) (enzyme)
